{"sequences": {"note": "Protein sequences, listed by entry. Tags and fused reporters are not part of them.", "UniProt P09269": "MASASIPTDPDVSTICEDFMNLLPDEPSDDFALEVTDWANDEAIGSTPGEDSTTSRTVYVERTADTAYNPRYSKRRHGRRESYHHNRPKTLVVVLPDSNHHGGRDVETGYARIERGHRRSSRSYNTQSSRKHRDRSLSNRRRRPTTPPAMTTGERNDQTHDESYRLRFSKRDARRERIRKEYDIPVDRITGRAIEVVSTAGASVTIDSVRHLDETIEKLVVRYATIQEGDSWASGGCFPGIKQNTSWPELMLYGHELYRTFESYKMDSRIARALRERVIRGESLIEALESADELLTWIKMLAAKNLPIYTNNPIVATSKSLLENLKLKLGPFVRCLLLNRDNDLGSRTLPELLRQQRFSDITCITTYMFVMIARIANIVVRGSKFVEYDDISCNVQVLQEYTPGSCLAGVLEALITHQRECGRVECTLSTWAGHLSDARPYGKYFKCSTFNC"}, "source": "paper PMC2775670", "binders": {"B1": {"name": "HA-9G8 (pCMV-HA-9G8) (protein, UniProt Q16629 1-238)", "chain": "MSRYGRYGGETKVYVGNLGTGAGKGELERAFSYYGPLRTVWIARNPPGFAFVEFEDPRDAEDAVRGLDGKVICGSRVRVELSTGMPRRSRFDRPPARRPFDPNDRCYECGEKGHYAYDCHRYSRRRRSRSRSRSHSRSRGRRYSRSRSRSRGRRSRSASPRRSRSISLRRSRSASLRRSRSGSIKGSRYFQSPSRSRSRSRSISRPRSSRSKSRSPSPKRSRSPSGSPRRSASPERMD"}, "B2": {"name": "endogenous SRp20 of HeLa cells (protein, UniProt P84103 1-164)", "chain": "MHRDSCPLDCKVYVGNLGNNGNKTELERAFGYYGPLRSVWVARNPPGFAFVEFEDPRDAADAVRELDGRTLCGCRVRVELSNGEKRSRNRGPPPSWGRRPRDDYRRRSPPPRRRSPRRRSFSRSRSRSLSRDRRRERSLSRERNHKPSRSFSRSRSRSRSNERK"}, "B3": {"name": "HA-SRp20 (pCMV-HA-SRp20) (protein, UniProt P84103 1-164)", "chain": "B2 chain"}}, "biological_target": "IE4-V5 (pcDNA3.1/V5-His-TOPO-IE4) expressed in HeLa cells (Varicella-Zoster virus) (UniProt P09269)", "assay": "co-IP", "note": "Results are given in words; binding and its absence hold for the method and conditions named. Binding seen in cells or lysates may run through a third protein. Some results given as binding are weak or reduced against the parent protein; the word gives no strength. Tags and fused reporters may be left off the sequences shown.", "data": [{"binder": "B1", "values": [{"measurement": "binding", "result": "binds"}]}, {"binder": "B2", "values": [{"measurement": "binding", "result": "binds"}]}, {"binder": "B3", "values": [{"measurement": "binding", "result": "binds"}]}]}
